In the supplement of paper PMC11150407 one finds cell viability data, which are given here for 25 compounds.

Molecules are shown by their SMILES. About 180 (8.6%) of roughly 2,100 compounds showed an effect of 50% or more. The list shows a part of the results.

For the test, the system named is MOLM1 and UCSD/AML1 (averaged). Put plainly: cell viability relative to DMSO control (POC); higher = less growth inhibition. As to conditions: 1 µM; 72 h. On the procedure:
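Primary viability screen in the 3q26 EVI1-high AML cell lines MOLM1 and UCSD/AML1 (1.5e3 cells/well, 384-well), compounds at 1 uM for 72 h. ATP CellTiter-Glo read-out given as percent of viable cells over DMSO control (POC), averaged over duplicates. DMSO was the negative control and 5 uM etoposide the positive control. This mapping covers the MicroSource Spectrum and Selleck anticancer libraries (drug names).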
The term cell viability denotes a read-out of living cells in per cent, often relative to untreated cells. For the compound `CCOC(=O)[C@@](C)(N)Cc1ccc(O)c(O)c1`, the cell viability was 103%.

For `FC(F)(F)COCC(F)(F)F`, the cell viability turned out to be 88.8%.

`CCN[C@@H]1C[C@H](N)[C@@H](O[C@H]2OC(CN)=CC[C@H]2N)[C@H](O)[C@H]1O[C@H]1OC[C@](C)(O)[C@H](NC)[C@H]1O`: the cell viability was 99.5%.

Take `C=CCCCCCCCCC(=O)[O-].C=CCCCCCCCCC(=O)[O-].[Zn+2]`: the cell viability turned out to be 101%.

For the compound `COC(=O)Nc1nc2cc([S+]([O-])c3ccccc3)ccc2[nH]1` (stereo not given), the cell viability came out at 50.5%.

On to `O=c1cc(-c2ccccc2)oc2cccc(O)c12`, for which the cell viability worked out at 119%.

For `CNc1ccccc1C(=O)N1CCc2c([nH]c3ccccc23)C1=O`, the cell viability turned out to be 88.5%.

Consider `COc1ccc2c(=O)c(CC(=O)O)coc2c1`, for which the cell viability stood at 98.6%.

For the compound `Nc1c2c(nc3ccccc13)CCCC2O` (stereo not given), the cell viability is 99.7%.

For `COc1ccccc1OCC(O)COC(N)=O` (stereo not given), the cell viability was found to be 100%.

In the case of `CO/N=C(\C(=O)N[C@@H]1C(=O)N2C(C(=O)OC(C)OC(C)=O)=C(COC(N)=O)CS[C@H]12)c1ccco1` (stereo not given in full), the cell viability turned out to be 116%.

On to `O=c1ccn([C@@H]2O[C@H](COP(=O)(O)OP(=O)(O)OP(=O)(O)O)[C@@H](O)[C@H]2O)c(=O)[nH]1`, for which the cell viability came to 107%.

Take `Cc1nc(-c2ccc(OCC(C)C)c(C#N)c2)sc1C(=O)O` [Febuxostat (Uloric)]: the cell viability was 99.3%.

With `CN(C)c1ccc(C(=C2C=CC(=[N+](C)C)C=C2)c2ccc(N(C)C)cc2)cc1`, the cell viability turned out to be 0.942%.

As to `CC(=O)[C@H]1CC[C@H]2[C@@H]3CC=C4C[C@@H](O)CC[C@]4(C)[C@H]3CC[C@]12C`, the cell viability was determined as 108%.

As to `Cc1nc(Nc2ncc(C(=O)Nc3c(C)cccc3Cl)s2)cc(N2CCN(CCO)CC2)n1`, the cell viability was determined as 29.5%.

Take `CCN(CCO)CCCC(C)Nc1ccnc2cc(Cl)ccc12` (stereo not given): the cell viability was 97.1%.

Take `CON`: the cell viability came to 109%.

For `CCCCN1CCCCC1C(=O)Nc1c(C)cccc1C` (stereo not given), the cell viability was determined as 100%.

`CCOC(=O)NNc1nncc2ccccc12`: the cell viability came out at 107%.

Consider `CC1(C)[C@@H](O)CC[C@]2(C)[C@H]3C(=O)C=C4[C@H]5C[C@@](C)(C(=O)O)CC[C@]5(C)CC[C@@]4(C)[C@]3(C)CC[C@@H]12` [18alpha-GLYCYRRHETINIC ACID], for which the cell viability stood at 95.3%.

As for `CC(=O)O[C@@H]1CC2C(C)(CC[C@H](O)C2(C)C)C2CC[C@]3(C)C(=CC(=O)O[C@H]3c3ccoc3)C21C` (stereo partly drawn) [3beta-HYDROXYDEOXODIHYDRODEOXYGEDUNIN], the cell viability stood at 106%.

As to `Cc1ccc2c(=O)c3cccc(CC(=O)O)c3oc2c1C`, the cell viability worked out at 99.8%.

On to `C=C1/C(=C\C=C2/CCC[C@]3(C)[C@@H]([C@H](C)/C=C/[C@H](C)C(C)C)CC[C@@H]23)C[C@@H](O)C[C@@H]1O` [Doxercalciferol (Hectorol)], for which the cell viability was 99.3%.

For the compound `CC12CCCC(O)(C1)C1CC(C)(C)C1CC2` (stereo not drawn) [beta-CARYOPHYLLENE ALCOHOL], the cell viability came to 111%.
